From patent publication US6939946B2 (Eli Lilly and Company, priority 1998, dated 2005)

Assay: general procedure: solution-phase peptide synthesis; DCC/N-hydroxysuccinimide active ester; PyBOP/diisopropylethylamine; hydroxybenzo
Settings: coupling step

Substance: DiBOC silyl (-L-)-(α)-N-BOC-2,3-diaminopropionic acid-(-L-)-(α)-N-CBZ-(β)-N-trifluoroacetyl 2,3-diaminopropionic acid linear heptapeptide
- step yield: 56%
